Literature values in patent US8980891B2, “Crystalline forms of certain 3-phenyl-pyrazole derivatives as modulators of the 5-HT2A serotonin receptor useful for the treatment of disorders related thereto” (Arena Pharmaceuticals, Inc., priority 2009, dated 2015).
Some entries share one result that the patent states for a list of compounds.

System: diabetic rats
Details: cited from earlier work

SMILES	correction of a 19.8% sciatic motor conduction deficit
Cc1nc2sccn2c(=O)c1CCN1CCC(=C(c2ccc(F)cc2)c2ccc(F)cc2)CC1 [ritanserin]	82.6-99.7%
COc1cccc(CCc2ccccc2OCC(CN(C)C)OC(=O)CCC(=O)O)c1 (centres unmarked) [sarpogrelate]	82.6-99.7%
